In patent publication US20240216557A1, “RADIOLIGAND BINDING TO ANTI-DLL3 ANTIBODIES FOR PRETARGETED PET IMAGING AND THERAPEUTIC USES THEREOF” (Memorial Sloan-Kettering Cancer Center, priority 2021, published 2024):
Numbering of substitutions follows the chain as printed. These are yes or no findings as the source states them, for the method shown. Some results given as binding are weak or reduced against the parent protein; the word gives no strength.

The chains behind the UniProt entries cited, without tags or fusion partners. Where a name states a change or a piece, a line headed by the entry shows the natural chain unless it says otherwise.
UniProt Q9NYJ7: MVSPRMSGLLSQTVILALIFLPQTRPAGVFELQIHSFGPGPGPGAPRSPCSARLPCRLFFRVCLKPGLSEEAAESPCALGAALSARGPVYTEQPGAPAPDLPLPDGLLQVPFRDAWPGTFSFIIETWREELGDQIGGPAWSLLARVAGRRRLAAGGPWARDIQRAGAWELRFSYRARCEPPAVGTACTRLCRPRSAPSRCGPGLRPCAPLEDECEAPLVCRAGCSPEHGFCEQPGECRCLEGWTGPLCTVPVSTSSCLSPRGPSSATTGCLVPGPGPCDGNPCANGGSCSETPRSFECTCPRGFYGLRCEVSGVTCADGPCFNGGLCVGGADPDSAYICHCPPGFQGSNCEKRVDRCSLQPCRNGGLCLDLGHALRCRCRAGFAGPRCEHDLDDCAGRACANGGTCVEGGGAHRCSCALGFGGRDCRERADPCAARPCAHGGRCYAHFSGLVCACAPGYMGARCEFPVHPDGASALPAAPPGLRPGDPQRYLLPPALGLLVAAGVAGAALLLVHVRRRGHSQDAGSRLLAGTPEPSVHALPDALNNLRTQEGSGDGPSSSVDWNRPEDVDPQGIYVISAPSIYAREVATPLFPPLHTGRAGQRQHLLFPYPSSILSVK

B1: F9 (antibody, V domains shown)
VH: QVQLVQSGAEVKKPGASVQVSCKASGYTFTSYYMHWVRQAPGQGLEWMGIINPSGGSTSYAQKFQGRVTMTRDTSTSTVYMELSSLRSEDTAVYYCARQGGAQWLVLAFDIWGQGTMVTVSS
VL: EIVLTQSPGTLSLSPGERATLSCRASQSVSSYLAWYQQKPGQPPRLLIYGASSRATGIPDRFSGGGSGTDFTLTISRLEPEDFAVYYCQQYDSSPYTFGQGTKLEIK
B2: E23 (antibody, V domains shown)
VH: QVQLVQSGAEVRKPGASVKVSCKASGYTFTGYYMHWVRQAPGQGLEWMGWINSYSGGANYAQKFQDRVTMTRDTSVSTASMELSRLRSDDTAVYYCARDGSGWYGSYFDFWGQGTLVTVSS
VL: DIVMTQTPLSSPVTLGQPASISCRSSQSLVHSDGNTYLSWLQQRPGQPPRLLIYKISNRFSGVPDRFSGSGAGTDFTLKISRVEAEDVGFYYCIQTTQFPLTFGGGTKVEIK
B3: E9 (antibody, V domains shown)
VH: QVQLVQSGAEVKKPGASVKVSCKASGYTFTSYYMHWVRQAPGQGLEWMGVINSSGGSTSYAQKFQGRVTMTRDTSTSTVYMDLSSLRSEDTAVYYCARGYCTNGVYYDEDFDYWGQGTLVTVSS
VL: DIQMTQSPSSLSASVGDRVTITCRASQGISHYLAWFQQKPGKAPTSLIYAASSLQSGVPSKFSGSGSGTDFTLTISSLQPEDFATYYCQQYNSYPLTFGGGTKVEIK
B4: B16-v2 (antibody, V domains shown)
VH: QVQLVQSGAEVKKPGASVKVSCKASGYTFTSYYMHWVRQAPGQGLEWMGIIDPSGGSTSYAQKFQGRVTMTRDTSTNTVYMDLSSLRSEDTAVYYCARQGRYVGSYLDYWGQGTLVTVSS
VL: B3 VL with H31N, T45K, L47V, L78M, L96Y, G100Q, V104L
B5: L22 (antibody, V domains shown)
VH: EVQLLESGGGLVQPGGSLRLSCAASGFTFSSYAMGWVRQTPGKGLEWVSTISGRGGDTYYADSVKGRFTISRDNSKNTLYLQMNSLRAEDTAIYYCAKERGLGFDYWGQGTLVTVSS
VL: DIVMTQTPLSLPVTPGEPASISCRSSQSLLDSDDGNTYLDWYLQKPGQSPQLLIYTLSYRASGVPDRFSGSGSGTDFTLKISRVEAEDVGVYYCMQHLEFPLTFGGGTKVEIK
B6: A18 (antibody, V domains shown)
VH: QVTLRESGPALVKSTQTLTLTCTFSGFSLSTSGMCVSWIRQTPGKALEWLALIDWDDNKYYSTSLKTRLIISKDTSKNQVVLTMTNMEPVDTATYYCARIRGYSGSYDAFDIWGQGTMVTVSS
VL: DIVMTQSPLSLPVTPGEPASISCRSSQSLLHSNGYNYLDWYLQKPGQSPHILLYLGSNRAPGVPDRFSGSGSGTDFTLKISRVEAEDVGVYYCMQALQTPFTFGPGTKVDIK
B7: G16 (antibody, V domains shown)
VH: B1 VH
VL: B1 VL with P43A, D92G
B8: J8 (antibody, V domains shown)
VH: QVHLVQSGAEVKKPGASVKVSCKASGYTFTIYYIHWVRQAPGQGLEWMGIINPSGGSTSYAQKFQGRVTMTRDTSTSTVYMELSSLRSEDTAVYYCSGNDYVDYVTTDYYGMDVWGQGTTVTVSS
VL: B3 VL with H31N, T45K, Y94S, L96Y, G100Q, V104L
B9: B2 (antibody, V domains shown)
VH: QVQLVQSGAEVKKPGASVKVSCKASGYTFTSYYMHWVRQAPGQGLEWMGIINPSGGSTSYAQKFRGRVTMTRDTSTSTVYMELSSLRSEDTAVYYCARGDYDILTDYYYNMDVWGQGTTVTVSS
VL: DIQMTQSPSAMSASVGDRVTITCRASQGISNYLAWFQQKPGKVPKRLIYAASSLQSGVPSRFSGSGSGTEFTLTISSLQPEDFATYYCLQHNSYPYTFGQGTKLEIK
B10: O24 (antibody, V domains shown)
VH: QVQLVQSGAEVKKPGASVKVSCKASGYTFTSYYLHWVRQAPGHGLEWMAIINPSGGSTSYAQKFLGRVTMTRDTSTNTVYMELSSLRSEDTAVYYCARERQQLDYYYFAMDVWGQGTTVTVSS
VL: B3 VL with H31N, T45K, L96P, G100Q

Each binder was assayed against Recombinant Human DLL3 Protein (amino acids Ala27-Ala479, cat #9749-DL, R&D Systems) (human) (UniProt Q9NYJ7) (assay: BLI, Octet HTX).

binding, binds:
B1

The binders below were run against Histidine-tagged DLL3 antigen (Homo sapiens (Human)) (UniProt Q9NYJ7) (assay: Carterra array SPR, antibody immobilized, DLL3-His injected).

binding, binds:
B2
B1
B3
B4
B5
B6
B7
B8
B9
B10
